# Source: patent EP1142907A1
# Chains of the proteins cited; added tags and fusions are not shown.
# UniProt P15337: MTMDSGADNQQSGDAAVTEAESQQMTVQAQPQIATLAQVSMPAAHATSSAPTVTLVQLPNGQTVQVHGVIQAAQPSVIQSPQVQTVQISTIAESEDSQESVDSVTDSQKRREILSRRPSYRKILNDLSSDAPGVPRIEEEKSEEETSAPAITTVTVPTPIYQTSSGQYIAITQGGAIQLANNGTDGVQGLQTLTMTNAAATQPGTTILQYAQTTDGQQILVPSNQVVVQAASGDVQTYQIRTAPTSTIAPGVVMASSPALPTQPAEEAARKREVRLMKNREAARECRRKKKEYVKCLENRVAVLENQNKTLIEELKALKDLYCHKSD
# Results are given in words; binding and its absence hold for the method and conditions named. Binding seen in cells or lysates may run through a third protein. Some entries that bind do so weakly or less than the wild type.
# B1: native DREAM of rat brain nuclear extracts (protein, UniProt Q9JM47 1-256, looked up)
# chain: MQRTKEAMKASDGSLLGDPGRIPLSKREGIKWQRPRFTRQALMRCCLIKWILSSAAPQGSDSSDSELELSTVRHQPEGLDQLQAQTKFTKKELQSLYRGFKNECPTGLVDEDTFKLIYSQFFPQGDATTYAHFLFNAFDADGNGAIHFEDFVVGLSILLRGTVHEKLKWAFNLYDINKDGYITKEEMLAIMKSIYDMMGRHTYPILREDAPLEHVERFFQKMDRNQDGVVTIDEFLETCQKDENIMSSMQLFENVI
# Target: native CREB of rat tissue extracts (rat) (UniProt P15337)
# Test: coimmunoprecipitation of native proteins from rat brain nuclear extracts
binder,measurement,value
B1,binding,binds
